# Laboratory results: PubChem BioAssay AID1053208 (Peter MacCallum Cancer Centre, 2014)
# Purpose: 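Synthetic lethal interactions between gene loss and doxorubicin in osteosarcoma cells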 (primary screen)
# Cell system: mouse osteosarcoma cells, early-passage culture from an engineered mouse model of fibroblastic bone tumour
# Reagent: siRNA pool against mouse genes, 40 nM
# Duration: about 120 h (48 h before drug, then 72 h with drug)
# Conditions: doxorubicin 100 nM for 72 h, roughly 30-40% inhibitory dose
# Measured: 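Viability read as ATP luminescence after 72 h of 100 nM doxorubicin or none, duplicate wells averaged, scaled to non-targeting siRNA, then expressed as robust z-scores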
# Reading the numbers: viability z-score with doxorubicin and doxorubicin viability vs non-targeting: higher = more viable cells under doxorubicin; viability z-score without drug: higher = more viable cells with knock-down alone; z-score of drug to no-drug ratio: higher = less drug sensitisation by knock-down
# Rule for the call: 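Called active if knock-down leaves viability unchanged without drug (z within -2 to 2) but lowers it with doxorubicin (z at or under -2)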
# The whole screen tested about 17,000 reagents; below is a part drawn at random. Over the whole deposit, 788 (4.7%) got an active call. 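Calls rest on z-score classes alone; an extra cut-off of viability at most 70% of control was not applied to them.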 Unmarked entries are inactive. The numbers tell different reagents against one gene apart. A reagent listed more than once was tested more than once; the source does not tell the runs apart.
gene knocked down,pool no.,combined z-score class,viability z-score with doxorubicin,viability z-score without drug,z-score of drug to no-drug ratio,doxorubicin viability vs non-targeting
Taar2,1,no change with or without drug,-0.45,1.35,-1.24,0.9
Or4f14d,1,no change with or without drug,-0.9,-0.17,-0.79,0.86
Arg2,1,no change with or without drug,0.67,-0.51,1.24,1
Stk36,1,low cell count with doxorubicin only (active),-2.47,-1.35,-1.69,0.72
Stk36,1,no change with or without drug,-0.45,-0.84,0.22,0.9
Il2rg,1,no change with or without drug,-0.67,-0.84,0,0.88
Mlx,1,no change with or without drug,0.11,0.17,0.11,0.95
Ccdc83,1,no change with or without drug,0.67,1.52,-0.22,1
Cd200r1,1,no change with or without drug,-0.56,-1.01,0.22,0.89
Tbc1d23,1,high cell count without drug only,-1.35,2.36,-2.59,0.82
Gorasp1,1,no change with or without drug,-0.9,-1.52,0.22,0.86
Kctd20,1,no change with or without drug,-1.12,0.34,-1.24,0.84
Uts2b,1,low cell count with doxorubicin only (active),-2.7,-0.34,-2.59,0.7
Npbwr1,1,no change with or without drug,0,1.18,-0.67,0.94
R3hdm2,1,no change with or without drug,1.01,0.51,0.79,1.03
Extl3,1,no change with or without drug,0.45,0.51,0.22,0.98
Defa21,1,no change with or without drug,1.12,1.18,0.45,1.04
Gjd2,1,high cell count without drug only,1.57,3.37,-0.45,1.08
Tsr2,1,no change with or without drug,-0.11,0.84,-0.56,0.93
Mob1a,1,no change with or without drug,-0.45,0.51,-0.67,0.9
Ak2,1,no change with or without drug,-0.45,-0.84,0.22,0.9
Rnf17,1,no change with or without drug,0.79,-0.67,1.46,1.01
Taf4b,1,no change with or without drug,0.11,0.51,-0.11,0.95
Sgk1,1,no change with or without drug,0.34,0,0.45,0.97
Brd2,1,no change with or without drug,0,-0.17,0.22,0.94
Smr2,1,low cell count with doxorubicin only (active),-2.36,0,-2.36,0.73
Sh3yl1,1,no change with or without drug,-1.12,-0.51,-0.79,0.84
Or5al5,1,no change with or without drug,-0.67,-1.18,0.22,0.88
Stxbp4,1,no change with or without drug,-0.67,-0.17,-0.45,0.88
Stxbp4,2,no change with or without drug,-0.79,-0.17,-0.56,0.87
Gabarapl2,1,low cell count with doxorubicin only (active),-3.93,1.85,-4.72,0.59
Tet3,1,high cell count without drug only,-1.46,2.7,-2.81,0.81
Dock3,1,no change with or without drug,0.56,-0.34,0.9,0.99
Ssu2,1,low cell count with doxorubicin only (active),-2.25,0.84,-2.7,0.74
Sfmbt1,1,no change with or without drug,-0.56,-1.01,0.22,0.89
Sfmbt1,2,high cell count without drug only,0.45,3.71,-1.57,0.98
Or8s10,1,no change with or without drug,0.22,-1.18,1.24,0.96
Ky,1,low cell count without drug only,-1.91,-2.19,-0.45,0.77
Hivep2,1,no change with or without drug,1.35,0.51,1.12,1.06
Mettl23,1,no change with or without drug,-0.45,0.17,-0.45,0.9
Tgfbi,1,no change with or without drug,-0.67,-0.17,-0.45,0.88
Rnf216,1,no change with or without drug,-0.45,-0.51,0,0.9
P2rx2,1,no change with or without drug,-0.9,-0.17,-0.79,0.86
Or6c70,1,no change with or without drug,-1.91,-1.52,-0.9,0.77
Grm2,1,no change with or without drug,1.35,0.84,0.9,1.06
Phf10,1,low cell count with doxorubicin only (active),-2.7,1.18,-3.26,0.7
Insc,1,no change with or without drug,0.22,-0.17,0.45,0.96
Nbeal1,1,high cell count without drug only,1.24,2.19,-0.11,1.05
Atp5mc3,1,no change with or without drug,0.67,0.17,0.67,1
Heatr5a,1,no change with or without drug,0.45,0.34,0.34,0.98

Entries listed so far whose gene name starts with G or g (4):
gene knocked down,pool no.,combined z-score class,viability z-score with doxorubicin,viability z-score without drug,z-score of drug to no-drug ratio,doxorubicin viability vs non-targeting
Gorasp1,1,no change with or without drug,-0.9,-1.52,0.22,0.86
Gjd2,1,high cell count without drug only,1.57,3.37,-0.45,1.08
Gabarapl2,1,low cell count with doxorubicin only (active),-3.93,1.85,-4.72,0.59
Grm2,1,no change with or without drug,1.35,0.84,0.9,1.06
